Reference: PubChem BioAssay AID1671195 (Yale University, 2021)
In all, the deposit lists about 22,000 reagents; shown is a part drawn at random. About 1,510 of all reagents (6.9%) were called active. 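Active includes knockdowns raising or lowering LDL uptake; positive z-scores mean more uptake, negative mean less.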

Screen: 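Genes whose knockdown alters LDL uptake in liver cancer cells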 (primary screen)
Cells: human Huh7 hepatoma cells
Knock-down reagent: siRNA pool against human genes, 18 nM
Timing: about 2 to 2.5 days of knockdown, then 8 h LDL uptake
Challenge: DiI-labelled LDL at 30 µg/ml for 8 h, in lipoprotein-deficient serum medium
Detection: 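Per-cell DiI-LDL intensity by automated imaging; well means scaled to the plate median and given as a robust z-score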
Reading the numbers: robust z-score: higher = more LDL uptake after knockdown
Hit rule: 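Active when two or more replicates show a robust z-score above 2 or below -2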

How did the screen score ZNF486 (GeneID 90649)?
robust z-score, replicate 1: 1.32; robust z-score, replicate 2: 0.537; robust z-score, replicate 3: 1.36; activity call: inactive

With LOC442423 (retired record) (GeneID 442423), what does the deposit list?
robust z-score, replicate 1: 0.227; robust z-score, replicate 2: 1.11; robust z-score, replicate 3: 0.816; activity call: inactive

For PLEKHG2 (GeneID 64857), how do the results read?
robust z-score, replicate 1: -0.184; robust z-score, replicate 2: -0.621; robust z-score, replicate 3: -0.642; activity call: inactive

For MYO9B (GeneID 4650), what was measured?
robust z-score, replicate 1: -0.786; robust z-score, replicate 2: -0.558; robust z-score, replicate 3: -0.58; activity call: inactive

In a second layout: results already given.
gene	robust z-score, replicate 1	robust z-score, replicate 2	robust z-score, replicate 3	activity call
PLEKHG2 (GeneID 64857)	-0.184	-0.621	-0.642	inactive
MYO9B (GeneID 4650)	-0.786	-0.558	-0.58	inactive

The results go on:
For CIT (GeneID 11113), what does the deposit list?
robust z-score, replicate 1: -2.33; robust z-score, replicate 2: -2.18; robust z-score, replicate 3: -1.75; activity call: active

With ZNF384 (GeneID 171017), what was measured?
robust z-score, replicate 1: -1.01; robust z-score, replicate 2: -1.04; robust z-score, replicate 3: -0.952; activity call: inactive

With TMEM9 (GeneID 252839), what was measured?
robust z-score, replicate 1: -0.27; robust z-score, replicate 2: -0.0641; robust z-score, replicate 3: -0.319; activity call: inactive

What is on record for FBXO2 (GeneID 26232)?
robust z-score, replicate 1: 0.407; robust z-score, replicate 2: -1.08; robust z-score, replicate 3: -1.03; activity call: inactive

With ZNF428 (GeneID 126299), what does the deposit list?
robust z-score, replicate 1: 0.292; robust z-score, replicate 2: -0.396; robust z-score, replicate 3: -0.622; activity call: inactive

With NUP54 (GeneID 53371), what does the deposit list?
robust z-score, replicate 1: 1.54; robust z-score, replicate 2: 1.32; robust z-score, replicate 3: 1.66; activity call: inactive

What did the screen give for CIRBP (GeneID 1153)?
robust z-score, replicate 1: 0.553; robust z-score, replicate 2: -0.584; robust z-score, replicate 3: -0.644; activity call: inactive

How did the screen score LOC389267 (retired record) (GeneID 389267)?
robust z-score, replicate 1: -0.389; robust z-score, replicate 2: -1.03; robust z-score, replicate 3: -0.391; activity call: inactive
